For at least one compound, name, drawing or mass did not settle the structure.
How the values were obtained:
[1] = tested on: C. difficile strain ATCC BAA-1382; assay: Hamster model of C. difficile associated cecitis, second experiment (FIG. 2); type: in vivo; conditions: C. difficile ATCC BAA-1382, three times daily at 50 mg/kg/day, groups of 6
S. pyogenes = assay: MIC susceptibility testing, S. pyogenes; type: cell-based, Streptococcus pyogenes; conditions: Table 3
E. faecalis = assay: MIC susceptibility testing, E. faecalis; type: cell-based; conditions: E. faecalis GRL05022; Vancomycin sensitive enterococci; Table 3
Method: Susceptibility testing for all aerobic organisms with the exception of Streptococcus pneumoniae was performed by two-fold serial antibiotic dilutions in Mueller-Hinton Broth supplemented with 50 μg/ml Ca^2+ unless otherwise noted. Susceptibility testing for S. pneumoniae was performed by two-fold serial antibiotic dilutions in Brain-Heart-Infusion Broth supplemented with 50 μg/ml Ca^2+ unless otherwise noted. Actively growing broth cultures were diluted to contain […] by adjusting to an OD600 of 0.2-0.3. They were then diluted a further 1:100 in fresh sterile broth. The assays were performed in duplicate in sterile 96-well microtitre plates in a total volume of 200 μl (160 μl broth, 20 μl antimicrobial agent, 20 μl inoculum) in a concentration range from 64 μg/ml to 0.06 μg/ml. […] Clinical isolates of Clostridium difficile were tested in Wilkins-Chalgren Anaerobe Agar under anaerobic conditions. In all cases, vancomycin was used as a reference antibiotic

| SMILES | rescue of infected animals [1] | MIC (S. pyogenes; S. pyogenes 7713283) | MIC (S. pyogenes; S. pyogenes 7755255) | MIC (S. pyogenes; S. pyogenes 7755441) | MIC (S. pyogenes; S. pyogenes 7755584) | MIC (S. pyogenes; S. pyogenes 7865253) | MIC (S. pyogenes; S. pyogenes 7865289) | MIC (S. pyogenes; S. pyogenes 7865844) | MIC (S. pyogenes; S. pyogenes GRL05041) | MIC (S. pyogenes; S. pyogenes GRL05042) | MIC (S. pyogenes; S. pyogenes GRL05045) | MIC (E. faecalis) |
| --- | --- | --- | --- | --- | --- | --- | --- | --- | --- | --- | --- | --- |
| CC[C@H](C)[C@@H]1NC(=O)[C@@H]2NC(=O)[C@H](CC(C)C)NC(=O)[C@H](NC(=O)[C@@H]3CSC[C@@H](N)C(=O)N[C@@H](CO)C(=O)NCC(=O)N[C@@H](Cc4c[nH]c5ccccc45)C(=O)N[C@@H](C(C)C)C(=O)N3)[C@H](C)SC[C@H](NC(=O)[C@H](CCC(=O)O)NC1=O)C(=O)NCC(=O)N[C@H]1C(=O)N[C@@H](CC(C)C)C(=O)N[C@@H](C(C)C)C(=O)N[C@@H](CS[C@H]2C)C(=O)N[C@@H](C)C(=O)N[C@H](C(=O)NCCO)CS[C@H]1C [Compound I, Deoxy-Actagardine B N-[2-ethanolamine]monocarboxamide] | equally effective in rescuing the animals as the currently accepted clinical standard, vancomycin |  |  |  |  |  |  |  |  |  |  |  |
| CCC(C)[C@@H]1NC(=O)[C@H](C(C)C)NC(=O)[C@H]2NC(=O)CNC(=O)[C@@H]3CS[C@@H](C)[C@@H](NC(=O)[C@H]4CSC[C@H](N)C(=O)N[C@@H](CO)C(=O)NCC(=O)N[C@@H](Cc5c[nH]c6ccccc56)C(=O)N[C@@H](C(C)C)C(=O)N4)C(=O)N[C@@H](CC(C)C)C(=O)N[C@@H](C(=O)N[C@@H](C(C)CC)C(=O)N[C@@H](CCC(=O)O)C(=O)N3)[C@H](C)SC[C@H](NC1=O)C(=O)N[C@@H](C)C(=O)N[C@H](C(=O)NCCO)C[S+]([O-])[C@H]2C (stereo partly drawn) [Compound III, Actagardine N-[2-ethanolamine]monocarboxamide] |  | ≦0.5 μg/ml | ≦0.5 μg/ml | ≦0.5 μg/ml | ≦0.5 μg/ml | ≦0.5 μg/ml | ≦0.5 μg/ml | ≦0.5 μg/ml | ≦0.5 μg/ml | ≦0.5 μg/ml | ≦0.5 μg/ml | ,8 μg/ml |
